# Source: PubChem BioAssay AID588590 (National Center for Advancing Translational Sciences (NCATS), 2011)
# Chains of the proteins cited; added tags and fusions are not shown. Lines headed by an entry give the natural chain unless they say otherwise; changes in a name come on top.
# UniProt Q9UNA4: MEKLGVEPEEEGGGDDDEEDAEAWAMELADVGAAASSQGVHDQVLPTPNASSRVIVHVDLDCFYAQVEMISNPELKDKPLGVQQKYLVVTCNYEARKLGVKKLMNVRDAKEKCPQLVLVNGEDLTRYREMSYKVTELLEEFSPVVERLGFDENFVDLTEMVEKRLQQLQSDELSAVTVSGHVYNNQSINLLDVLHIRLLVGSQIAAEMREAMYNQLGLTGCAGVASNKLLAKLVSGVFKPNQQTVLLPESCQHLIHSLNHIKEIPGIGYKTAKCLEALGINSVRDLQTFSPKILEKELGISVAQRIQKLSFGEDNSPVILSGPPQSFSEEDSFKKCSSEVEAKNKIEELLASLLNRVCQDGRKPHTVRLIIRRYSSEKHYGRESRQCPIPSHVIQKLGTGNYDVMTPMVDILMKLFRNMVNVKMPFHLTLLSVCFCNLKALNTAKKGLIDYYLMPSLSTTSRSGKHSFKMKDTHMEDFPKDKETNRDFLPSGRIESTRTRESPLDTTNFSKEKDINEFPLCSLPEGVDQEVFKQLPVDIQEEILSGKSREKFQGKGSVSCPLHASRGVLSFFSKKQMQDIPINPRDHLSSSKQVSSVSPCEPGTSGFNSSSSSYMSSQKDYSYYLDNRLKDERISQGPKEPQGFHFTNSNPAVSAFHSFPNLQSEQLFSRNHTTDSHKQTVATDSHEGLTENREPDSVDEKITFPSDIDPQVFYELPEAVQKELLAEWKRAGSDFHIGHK
# Where “and” joins values, the source holds several entries; their conditions need not be identical. Identical values can stand only once. In all, about 390,000 compounds went through this assay and about 4,000 (1%) were called active. The inconclusive results got no clear call from the source; some entries with a clear call stand among them for comparison. The call rests on the fitted dose curve; in most records, active means well fitted inhibition curve with a large enough effect; inconclusive means small, poorly fitted or top-dose-only effect, or another doubt; inactive means no such curve, though single readings can be large or run the other way. A potency beside an inconclusive call is a rough fit, not a confirmed value.
# Target: DNA polymerase iota (Homo sapiens) (UniProt Q9UNA4)
# Assay: qHTS for Inhibitors of Polymerase Iota
# Settings: Pol iota fluorescent replication assay, 10 min; series mostly up to 115 µM
# Procedure, shortened: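 Fluorescent replication assay read twice, at 0 min and 10 min after adding 50 nM (final) substrate. Enzyme (10 nM) and compounds were first incubated 15 min at room temperature; enzyme-free buffer wells were negative controls.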
# Potency means the concentration at half of the fitted maximal effect.
row,Structure (SMILES),Potency
1,CC(=O)c1c(COC(=O)c2cccnc2)nc2ccccc2[n+]1[O-],inactive
2,CC(C)NC(=O)C(C)N1CCN(S(=O)(=O)c2ccc3ccccc3c2)CC1 (stereo not given),inactive
3,COc1cc2c(cc1OC)-c1c(OC)c(OC)cc3c1C(C2)N(C)CC3 (stereo not given),active: 11.2 µM
4,COc1ccc(OC)c(C(O)C(C)N)c1 (stereo not given),inactive
5,COc1ccc(CN2CC3CC(C2)c2cccc(=O)n2C3)cc1OC (stereo not given),"inconclusive: 44.7 µM [inhibitor, single point]"
6,CCNc1ccc(P(=S)(N(C)C)N(C)C)cc1,"inconclusive: 112 µM [inhibitor, partial curve, poor fit]"
7,COc1ccc(N2C(=O)/C(=C/c3ccc(N(C)C)o3)C(=O)NC2=S)cc1,"inconclusive: 50.1 µM [inhibitor, partial curve, poor fit]"
8,O=C(CN1CC=C(c2ccccc2)CC1)NC(=O)NCc1ccco1,"inconclusive: 56.2 µM [inhibitor, partial curve, poor fit]"
9,CCn1cnc2c(Nc3cccc(Cl)c3)nc(N[C@@H]3CCCC[C@@H]3N)nc21,"inconclusive: 28.2 µM [inhibitor, partial curve, poor fit]"
10,Cc1ccc2c(c1)C1CN(C)CCC1N2S(=O)(=O)c1ccccc1 (stereo not given),"inconclusive: 100 µM [inhibitor, partial curve, poor fit]"
11,Nc1c(C(=O)NCc2ccco2)c2nc3ccccc3nc2n1Cc1ccccc1,"inconclusive: 50.1 µM [inhibitor, single point]"
12,CCN(CC)C(=O)c1ccc2c(c1)C1C(Cl)C(Sc3ccccc3[N+](=O)[O-])CC1C(C(=O)O)N2 (stereo not given),"inconclusive: 14.1 µM [inhibitor, full curve, poor fit]"
13,Cc1ccc(NC(=O)O/N=C/c2cccc([N+](=O)[O-])c2)cc1,inactive
14,O=C1NC(=O)N(c2ccc(F)cc2)C(=O)/C1=C/c1ccc2c(c1)CCCN2Cc1ccccc1,"inconclusive: 15.8 µM [inhibitor, full curve, poor fit]"
15,OCCNCCc1c[nH]c2ccc(OCc3ccccc3)cc12,"inconclusive: 39.8 µM [inhibitor, single point]"
16,CC(=O)n1cc(C=C2C(=O)NC(=O)NC2=O)c2ccccc21,"inconclusive: 15.8 µM [inhibitor, partial curve, poor fit]"
17,O=C(NCc1ccccc1)c1cccc(Nc2nc3ccccc3n3nnnc23)c1,"inconclusive: 89.1 µM [inhibitor, single point]"
18,O=C(C1CCCN(S(=O)(=O)c2ccc(F)cc2)C1)N1CCOCC1 (stereo not given),inactive
19,O=C1CC(c2ccc(Br)cc2)c2c(c3ccccc3oc2=O)O1 (stereo not given),"inconclusive: 17.8 µM [inhibitor, partial curve, poor fit]"
20,N#CC(C#N)=Cc1ccc([N+](=O)[O-])c(O)c1,"inconclusive: 5.01 µM [inhibitor, full curve]"

row,Structure (SMILES),Potency
1,COc1ccccc1NS(=O)(=O)c1cc(NC(=O)c2ccc(Cl)nc2)ccc1N1CCCC1,"inconclusive: 25.1 µM [inhibitor, single point]"
2,CCOP1(=O)C=C(Sc2ccc([N+](=O)[O-])cc2[N+](=O)[O-])C(C)(C)O1 (stereo not given),"inconclusive: 12.6 µM [inhibitor, partial curve, poor fit]"
3,C[Se]C[C@@H](N)C(=O)O,"inconclusive: 39.8 µM [inhibitor, partial curve]"
4,CCCCCCCCC(=O)NCc1ccc(O)c(OC)c1,"inconclusive: 112 µM [inhibitor, partial curve, poor fit]"
5,O=C(C1CC(=O)N(C2CCCC2)C1)N1CCC2(CC1)OCCO2 (stereo not given),"inconclusive: 112 µM [inhibitor, single point]"
6,O=c1oc2ccccc2c(O)c1C(c1ccc([N+](=O)[O-])cc1)c1c(O)c2ccccc2oc1=O,"inconclusive: 56.2 µM [inhibitor, partial curve, poor fit]"
7,Cc1ccc(/C=C2\C(=O)NC(=O)N(CC3CCCO3)C2=O)s1 (stereo not given),"inconclusive: 31.6 µM [inhibitor, partial curve, poor fit]"
8,CCOC(=O)c1sc(/N=C/c2c(O)n(-c3ccccc3)c(=O)[nH]c2=O)c(C#N)c1C,"inconclusive: 1.41 µM [inhibitor, partial curve, poor fit]"
9,C=CCN1CC[C@]23c4c5ccc(O)c4OC2[C@H](O)CC[C@@]3(O)[C@H]1C5 (stereo not given in full),"inconclusive: 89.1 µM [inhibitor, partial curve, poor fit]"
10,CCN(CC)c1ccc(N=Cc2c(O)[nH]c(=O)[nH]c2=O)cc1,"inconclusive: 63.1 µM [inhibitor, single point]"
11,CCn1c(N)c(C(=O)NC)sc1=S,"inconclusive: 14.1 µM [inhibitor, partial curve, poor fit]"
12,CNC(C)C#Cc1ccc2c(=O)c3ccccc3oc2c1 (stereo not given),"inconclusive: 50.1 µM [inhibitor, partial curve, poor fit]"
13,CC(C)CNC(=O)c1c(N)n(Cc2ccco2)c2nc3ccccc3nc12,"inconclusive: 14.1 µM [inhibitor, partial curve]"
14,COC(=O)c1c(C)n(Cc2ccccc2)c2ccc(O)cc12,"inconclusive: 22.4 µM [inhibitor, partial curve, poor fit]"
15,Cc1ccc(NS(=O)(=O)c2ccc(Cl)c(N=Nc3c(O)[nH]c(=O)[nH]c3=O)c2)cc1Cl,"inconclusive: 31.6 µM [inhibitor, partial curve]"
16,COc1ccccc1CCNCc1cc2c(cc1[N+](=O)[O-])OCO2,"inconclusive: 25.1 µM [inhibitor, full curve, poor fit]"
17,CCOC(=O)c1c(-n2c(C)cc(C=C3C(=O)NC(=O)NC3=O)c2C)sc2c1CCCC2,"inconclusive: 8.91 µM [inhibitor, partial curve, poor fit]"
18,Cc1cccc(N2C(=O)NC(=O)/C(=C\c3cc(C)n(-c4sc5c(c4C#N)CCCC5)c3C)C2=O)c1C,active: 20 µM
19,COc1ccc(S(=O)(=O)Nc2ccccc2OC)cc1N=Nc1c(O)[nH]c(=S)[nH]c1=O,"inconclusive: 39.8 µM [inhibitor, partial curve, poor fit]"
20,Cc1ccc(-n2nc(C)c3c2NC(=O)CSC3c2ccc3c(c2)OCO3)cc1 (stereo not given),"inconclusive: 15.8 µM [inhibitor, partial curve, poor fit]"

row,Structure (SMILES),Potency
1,CCOCCCNC(=O)c1c(NC(=O)c2nc(SC)ncc2Cl)sc2c1CCCC2,"inconclusive: 89.1 µM [inhibitor, single point]"
2,COc1cc(/C=C2\C(=O)NC(=O)N(CCc3ccc(F)cc3)C2=O)ccc1O,"inconclusive: 39.8 µM [inhibitor, single point]"
3,COC(=O)c1c(C)[nH]c(C(=O)C(Cc2ccccc2)N(C)C)c1C (stereo not given),"inconclusive: 28.2 µM [inhibitor, single point]"
4,Cc1ccc(S(=O)(=O)Cc2ccc(C(=O)N3CCC4(CC3)OCCO4)o2)cc1,"inconclusive: 44.7 µM [inhibitor, partial curve, poor fit]"
5,O=C(/C=C/c1ccc2c(c1)OCO2)c1c(O)n(CCc2ccccc2)c(=O)[nH]c1=O,"inconclusive: 56.2 µM [inhibitor, partial curve, poor fit]"
6,C=CCN1C(=O)/C(=C/c2cccs2)C(=O)NC1=S,"inconclusive: 22.4 µM [inhibitor, full curve, poor fit]"
7,CCc1ccc(N2NC(=O)/C(=C/C=C/c3ccco3)C2=O)cc1,active: 17.8 µM
8,CCC(CO)NC(=O)[C@@H]1C=C2c3cccc4[nH]cc(c34)C[C@H]2N(C)C1 (stereo not given in full),active: 31.6 µM
9,CON(C)C(=O)Nc1ccc(Cl)cc1,"inconclusive: 100 µM [inhibitor, partial curve, poor fit]"
10,COC(=O)C1=C(c2cccc(OCc3ccccc3)c2)C[C@@H]2CC[C@H]1N2C(=O)NCc1ccccc1C(F)(F)F,inactive
11,CCC(C)N1C(=O)/C(=C\c2cc3c4c(c2)CCCN4CCC3)C(=O)NC1=S (stereo not given),"inconclusive: 15.8 µM [inhibitor, full curve, poor fit]"
12,Cc1cc(/C=C2\C(=O)NC(=O)N(c3ccccc3F)C2=O)c(C)n1-c1cc(C(=O)O)cc(C(=O)O)c1,"inconclusive: 3.98 µM [inhibitor, full curve]"
13,Cc1ccc(C(=O)Nc2ccc(S(=O)(=O)N3CCC(c4nc5ccccc5s4)CC3)cc2)cc1,inactive
14,Cc1ccc(CCP(=O)(O)CN2CCOCC2)cn1,"inconclusive: 89.1 µM [inhibitor, partial curve, poor fit]"
15,CC(=O)Nc1cc([As](=O)(O)O)ccc1O,"inconclusive: 39.8 µM [inhibitor, single point]"
16,O=C(Cn1c(=O)oc2cc(S(=O)(=O)N3CCCC3)ccc21)Nc1cccc(C(F)(F)F)c1,"inconclusive: 39.8 µM [inhibitor, single point]"
17,Cc1ccc(-c2nn(C)c(=O)c3ccccc23)cc1CNC(=O)/C=C/c1ccccc1,"inconclusive: 4.47 µM [inhibitor, single point]"
18,O=c1[nH]c2ccccc2n1C1CCN(CCCC(c2ccc(F)cc2)c2ccc(F)cc2)CC1,"inactive and inconclusive: 25.1 µM [inhibitor, partial curve]"
19,CN1CCc2nc(N)c(C#N)c(-c3ccccc3)c2C1,"inconclusive: 79.4 µM [inhibitor, single point]"
20,N#CC(C#N)=NNc1ccc([N+](=O)[O-])cc1,"inconclusive: 50.1 µM [inhibitor, partial curve, poor fit]"
